Data from paper PMC12116779.
No constants are given. Whether binding was seen depends on the method and setting. For some of these results: Binding seen in cells or lysates may run through a third protein. Some binding calls cover weakened binding; strength is not graded here. For some of these results: Where a sequence is shown, tags or fusion partners need not be part of it.

Amino acid sequences for entries named in this document (tags omitted).
UniProt Q9UBN7: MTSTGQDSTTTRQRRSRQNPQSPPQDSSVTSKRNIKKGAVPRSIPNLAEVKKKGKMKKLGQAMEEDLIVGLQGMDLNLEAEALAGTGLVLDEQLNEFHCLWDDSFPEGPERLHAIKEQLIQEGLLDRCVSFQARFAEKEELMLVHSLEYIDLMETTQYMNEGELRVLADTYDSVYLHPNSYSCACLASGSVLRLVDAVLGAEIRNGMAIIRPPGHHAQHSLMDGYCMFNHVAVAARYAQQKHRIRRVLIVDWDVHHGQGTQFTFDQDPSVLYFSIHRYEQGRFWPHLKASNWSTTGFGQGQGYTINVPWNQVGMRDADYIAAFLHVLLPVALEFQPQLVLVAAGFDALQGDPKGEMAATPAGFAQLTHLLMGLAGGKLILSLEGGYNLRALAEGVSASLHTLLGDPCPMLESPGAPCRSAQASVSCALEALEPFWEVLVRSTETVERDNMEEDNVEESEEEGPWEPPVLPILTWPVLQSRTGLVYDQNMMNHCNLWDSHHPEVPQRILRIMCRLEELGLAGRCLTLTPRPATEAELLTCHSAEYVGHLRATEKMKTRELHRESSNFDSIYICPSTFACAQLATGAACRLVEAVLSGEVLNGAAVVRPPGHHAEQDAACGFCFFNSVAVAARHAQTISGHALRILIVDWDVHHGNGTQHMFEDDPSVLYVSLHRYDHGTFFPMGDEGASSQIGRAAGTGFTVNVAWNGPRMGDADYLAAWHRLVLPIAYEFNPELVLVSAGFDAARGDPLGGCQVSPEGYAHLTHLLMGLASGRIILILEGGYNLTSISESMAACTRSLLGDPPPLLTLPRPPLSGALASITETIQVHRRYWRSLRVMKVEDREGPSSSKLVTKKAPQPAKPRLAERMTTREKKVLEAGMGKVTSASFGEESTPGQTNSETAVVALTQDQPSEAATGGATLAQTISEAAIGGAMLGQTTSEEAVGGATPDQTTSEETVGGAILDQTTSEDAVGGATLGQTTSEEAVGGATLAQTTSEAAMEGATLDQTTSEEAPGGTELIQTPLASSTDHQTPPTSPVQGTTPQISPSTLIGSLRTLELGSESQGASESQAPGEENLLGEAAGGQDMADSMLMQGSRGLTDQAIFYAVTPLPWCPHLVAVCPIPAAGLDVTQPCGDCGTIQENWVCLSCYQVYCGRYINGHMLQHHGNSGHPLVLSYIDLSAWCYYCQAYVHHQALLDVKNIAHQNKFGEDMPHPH

Tests used:
[1] = biological target: T1, histone deacetylase 6 (HDAC6), endogenous, mouse cornea (mouse (endogenous in cornea)) (UniProt Q9Z2V5); experiment: co-IP; endogenous proteins in mouse corneal lysate; primary antibody (ENKD1 antibody or control IgG for the γ-tubulin pair) on protein A/G beads; lysis buffer 50 mM Tris-HCl, 150 mM NaCl, 1 mM EDTA, 3% glycerinum, 1% NP-40; overnight at 4 °C; also corneas injected with control or HDAC6 adenoviruses
T1 sequence: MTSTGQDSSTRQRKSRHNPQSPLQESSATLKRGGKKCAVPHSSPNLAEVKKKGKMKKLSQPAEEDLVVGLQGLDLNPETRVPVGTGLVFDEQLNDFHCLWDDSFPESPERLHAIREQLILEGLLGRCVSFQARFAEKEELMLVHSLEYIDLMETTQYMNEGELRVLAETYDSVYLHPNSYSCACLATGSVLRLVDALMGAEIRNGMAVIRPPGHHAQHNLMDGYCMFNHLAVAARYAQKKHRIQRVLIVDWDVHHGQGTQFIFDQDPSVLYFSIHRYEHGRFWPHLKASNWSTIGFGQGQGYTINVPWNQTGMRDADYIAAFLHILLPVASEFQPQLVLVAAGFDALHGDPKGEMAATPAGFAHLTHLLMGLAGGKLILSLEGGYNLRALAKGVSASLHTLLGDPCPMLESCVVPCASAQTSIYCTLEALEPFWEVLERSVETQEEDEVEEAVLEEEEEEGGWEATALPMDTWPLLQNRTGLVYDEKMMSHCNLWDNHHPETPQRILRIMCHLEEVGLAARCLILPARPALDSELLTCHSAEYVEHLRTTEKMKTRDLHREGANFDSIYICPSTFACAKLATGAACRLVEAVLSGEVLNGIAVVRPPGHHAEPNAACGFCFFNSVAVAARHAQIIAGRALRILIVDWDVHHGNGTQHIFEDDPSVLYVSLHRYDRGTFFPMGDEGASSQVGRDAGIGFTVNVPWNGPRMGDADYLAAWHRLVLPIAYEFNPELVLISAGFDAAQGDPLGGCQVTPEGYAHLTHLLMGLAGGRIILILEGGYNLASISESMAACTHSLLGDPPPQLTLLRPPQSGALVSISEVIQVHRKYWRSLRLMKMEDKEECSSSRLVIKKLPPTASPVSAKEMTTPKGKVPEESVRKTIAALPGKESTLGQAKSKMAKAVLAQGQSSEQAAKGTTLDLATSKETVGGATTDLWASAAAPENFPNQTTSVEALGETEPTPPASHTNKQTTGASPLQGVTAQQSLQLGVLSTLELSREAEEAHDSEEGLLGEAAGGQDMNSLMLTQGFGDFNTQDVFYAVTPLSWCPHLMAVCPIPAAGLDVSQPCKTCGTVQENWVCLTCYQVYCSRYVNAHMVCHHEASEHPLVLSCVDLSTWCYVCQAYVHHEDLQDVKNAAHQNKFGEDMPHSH

[2] = biological target: histone deacetylase 6 (HDAC6), endogenous, HCE-2 cells (human (endogenous in HCE-2)) (UniProt Q9UBN7); experiment: co-IP; endogenous proteins in HCE-2 lysate; primary antibody (ENKD1 antibody or control IgG for the γ-tubulin pair) on protein A/G beads; lysis buffer with 150 mM NaCl and 1% NP-40; overnight at 4 °C; also cells (not named) transfected with GFP, GFP-HDAC6 wild-type, H215A, H610A or H215/610A
HA-HDAC6 = HA-HDAC6 (UniProt Q9UBN7); experiment: co-IP; HA-HDAC6 and GFP-ENKD1 co-transfected in HEK293T cells; lysis buffer with 150 mM NaCl and 1% NP-40; overnight at 4 °C
GST-HDAC6 = GST-HDAC6 (UniProt Q9UBN7); experiment: pull-down; 100 µg GST or GST-HDAC6 immobilised on 50 µL glutathione resin, incubated overnight at 4 °C with 100 µg His-ENKD1-CD; washed six times; immunoblotting; both purified

B1: enkurin domain-containing protein 1 (ENKD1), endogenous, mouse cornea (protein, UniProt Q7TSV9 1-346)
chain: MCEGPSRISGPIPPDPTLCPDYYRRPASAQGRLEGNALKLDLLTSGRDLDSSPPRGPRIRPEAREILERGQRGVGDVLLQLGCISLGSGVSPKRKNPKDHEKENLRRIKEIQRRFQDQERSREQGQPKPLKALWRSPKYDNVESRVKARMKELGPTSVTEPAHFLRAHSRCGPGLPPSRASSPQLALPGPQAKGPGLGVDFISRNALAAKRAPRRHSRSLQVLAQVQEQQRQAQERYNATQKGHVPHYLLERRDLWRKEAEARQRSQPDPSMPPGHTLMPENQRLETLNNLLQSQSQLLRELVLLPAGADSLRAQGHRAELDRKLVQIEEAIKIFSRPKVFVKMDT
With B1 the binding [1] was “binds”.

B2: enkurin domain-containing protein 1 (ENKD1), endogenous, human cells (protein, UniProt Q9H0I2 1-346)
chain: MCEGPSRISGPIPPDPTLCPDNYRRPTSAQGRLEGNALKLDLLTSDRALDTTAPRGPCIGPGAGEILERGQRGVGDVLLQLEGISLGPGASLKRKDPKDHEKENLRRIREIQKRFREQERSREQGQPRPLKALWRSPKYDKVESRVKAQLQEPGPASGTESAHFLRAHSRCGPGLPPPHVSSPQPTPPGPEAKEPGLGVDFIRHNARAAKRAPRRHSCSLQVLAQVLEQQRQAQEHYNATQKGHVPHYLLERRDLWRREAEARKQSQPDPAMPPGHTRMPENQRLETLTKLLQSQSQLLRELVLLPAGADSLRAQSHRAELDRKLVQVEEAIKIFSRPKVFVKMDD
B2 was tested, and the binding [2] was “binds”.

B3: GFP-ENKD1 (protein, UniProt Q9H0I2 1-346)
chain: MCEGPSRISGPIPPDPTLCPDNYRRPTSAQGRLEGNALKLDLLTSDRALDTTAPRGPCIGPGAGEILERGQRGVGDVLLQLEGISLGPGASLKRKDPKDHEKENLRRIREIQKRFREQERSREQGQPRPLKALWRSPKYDKVESRVKAQLQEPGPASGTESAHFLRAHSRCGPGLPPPHVSSPQPTPPGPEAKEPGLGVDFIRHNARAAKRAPRRHSCSLQVLAQVLEQQRQAQEHYNATQKGHVPHYLLERRDLWRREAEARKQSQPDPAMPPGHTRMPENQRLETLTKLLQSQSQLLRELVLLPAGADSLRAQSHRAELDRKLVQVEEAIKIFSRPKVFVKMDD
For B3, the binding (HA-HDAC6) was “binds”.

B4: His-ENKD1-CD (91-250 aa) (domain or fragment, UniProt Q9H0I2 91-250)
chain: SLKRKDPKDHEKENLRRIREIQKRFREQERSREQGQPRPLKALWRSPKYDKVESRVKAQLQEPGPASGTESAHFLRAHSRCGPGLPPPHVSSPQPTPPGPEAKEPGLGVDFIRHNARAAKRAPRRHSCSLQVLAQVLEQQRQAQEHYNATQKGHVPHYLL
B4 was tested, and the binding (GST-HDAC6) was “binds”.
